Here are results for five molecules from US20140341983A1, “SMART™ SOLID ORAL DOSAGE FORMS” (priority 2011, published 2014).

The nature of this series: Pilot SAW sensor detection of flavorants in breath after placement on tongue or in mouth. Conditions: 30 and 500 μg in 50 μL neat ethanol placed on surface of tongue; polymer coatings optimized for propofol.

As for `C=C(C)[C@@H]1CC=C(C)C(=O)C1` [L-carvone], the “detection in human breath by SAW sensor” value is reported as “easily detected”.
With `O=Cc1ccccc1` [benzaldehyde], the “detection in human breath by SAW sensor” value is “easily detected”.
`COC(=O)c1ccccc1N` [methyl anthranilate]: the “detection in human breath by SAW sensor” value is on record as “easily detected”.
Under `COC(=O)c1ccccc1O` [methyl salicylate, methyl-2-hydroxybenzoate] stands “easily detected”; under `COc1cc(C=O)ccc1O` [vanillin, 4-hydroxy-3-methoxybenzaldehyde], “weak SAW response”.
